Measurements: PMC10081768
These are yes or no findings as the source states them, for the method shown. Binding seen in cells or lysates may run through a third protein. These calls come from enrichment with a bait or labelling near it, and not all partners need be listed. Sequences can lack the tags named with a protein.

Biological target: T1, HMP-1::GFP/α-catenin (C. elegans (endogenous in embryos)) (UniProt P90947)
T1 sequence: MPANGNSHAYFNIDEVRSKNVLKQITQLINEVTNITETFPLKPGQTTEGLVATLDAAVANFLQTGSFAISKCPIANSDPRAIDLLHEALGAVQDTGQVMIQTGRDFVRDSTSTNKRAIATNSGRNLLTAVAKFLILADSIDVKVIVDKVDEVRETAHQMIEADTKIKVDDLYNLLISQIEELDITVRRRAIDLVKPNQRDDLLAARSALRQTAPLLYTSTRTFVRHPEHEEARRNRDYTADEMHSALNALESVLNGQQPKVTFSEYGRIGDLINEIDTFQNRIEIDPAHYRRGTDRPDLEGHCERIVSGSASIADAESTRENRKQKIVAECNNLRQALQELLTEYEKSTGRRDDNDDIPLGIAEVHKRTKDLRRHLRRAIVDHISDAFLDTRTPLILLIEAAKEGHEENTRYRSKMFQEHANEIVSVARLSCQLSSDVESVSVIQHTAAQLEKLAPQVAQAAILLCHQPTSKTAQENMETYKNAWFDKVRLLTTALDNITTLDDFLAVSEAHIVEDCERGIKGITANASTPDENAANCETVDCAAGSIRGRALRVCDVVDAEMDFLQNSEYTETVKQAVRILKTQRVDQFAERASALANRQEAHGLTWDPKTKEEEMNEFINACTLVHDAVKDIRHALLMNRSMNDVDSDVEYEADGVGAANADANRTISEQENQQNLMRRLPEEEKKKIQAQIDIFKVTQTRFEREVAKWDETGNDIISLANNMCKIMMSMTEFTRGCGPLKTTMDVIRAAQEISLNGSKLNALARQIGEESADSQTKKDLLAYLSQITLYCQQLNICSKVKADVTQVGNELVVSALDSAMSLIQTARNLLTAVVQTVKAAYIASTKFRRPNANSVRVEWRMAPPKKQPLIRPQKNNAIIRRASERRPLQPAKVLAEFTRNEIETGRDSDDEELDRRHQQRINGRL
Assay: affinity purification with mass spectrometry; single-step immunoprecipitation with anti-GFP coupled agarose beads from extracts of C. elegans embryos enriched for <50 cells, strain with endogenously tagged HMP-1::GFP; strain with soluble GFP alone as control; lysis buffer 20 mM Tris-HCl pH 7.9, 150 mM NaCl, 10% glycerol, 0.5 mM DTT, 0.05% Triton-X 100; LC-MS/MS

B1: HMP-2/β-catenin (protein, UniProt O44326 1-678)
chain: MLLHSTNSYSIFTDHEVETRTSRIRSAMFPDWIPPTSAAEATNSTTSIVEMMQMPTQQLKQSVMDLLTYEGSNDMSGLSLPDLVKLMCDHDESVVARAVHRAYMLSREDPNFFNAPGFDHRSFVEALMAASKSSNVNVRRNAIGALSHMSEQRGGPLLIFRSGGLAEIIRMLYDSLESVVHYAVTTLRNLLMHVSDSRAQARALNAVEALTPHLHKTNPKLLAQVADGLYFLLIDDAPSKITFLSLLGPQILVSILREYSDHRKLIYTVVRCIRSLSVCPSNKPALISLGCLPALYVELCTAKDERSQTAILVAMRNLSDSATNEENLTQLIIKLLEIIRVANDGMTACACGTLSNLTCNNTRNKQTVCSHGGIDALVTAIRRLPEVEEVTEPALCALRHCTARHSLAEEAQSELRFCQAFPVILDQLETLRTPVIKAALGVIRNSALLQTNLIELTQEQTANGHTAVSLTMDILRRAITAIEENPDIAVDGVPMWGVIEGAVSALHQLANHPAVAAACCDDIGQVGNPECPPFLDLLHRLLAHPRLGSMDDEVLEREILGLLYQLSKRPDGARAVESTGVSALLMESRGSQYKSVVTYANGVLSNLKRGDSAAIMNMSNSYDYEMSGSAADWQRDGLERELFAEMYPTNDGGHSESINMALNNSQMRPNHNWYDTDL
  binding: binds
